{"sequences": {"note": "By UniProt entry, the sequences of proteins in these tests, tags left out. Where a name states a change or a piece, a line headed by the entry shows the natural chain unless it says otherwise.", "UniProt P35637": "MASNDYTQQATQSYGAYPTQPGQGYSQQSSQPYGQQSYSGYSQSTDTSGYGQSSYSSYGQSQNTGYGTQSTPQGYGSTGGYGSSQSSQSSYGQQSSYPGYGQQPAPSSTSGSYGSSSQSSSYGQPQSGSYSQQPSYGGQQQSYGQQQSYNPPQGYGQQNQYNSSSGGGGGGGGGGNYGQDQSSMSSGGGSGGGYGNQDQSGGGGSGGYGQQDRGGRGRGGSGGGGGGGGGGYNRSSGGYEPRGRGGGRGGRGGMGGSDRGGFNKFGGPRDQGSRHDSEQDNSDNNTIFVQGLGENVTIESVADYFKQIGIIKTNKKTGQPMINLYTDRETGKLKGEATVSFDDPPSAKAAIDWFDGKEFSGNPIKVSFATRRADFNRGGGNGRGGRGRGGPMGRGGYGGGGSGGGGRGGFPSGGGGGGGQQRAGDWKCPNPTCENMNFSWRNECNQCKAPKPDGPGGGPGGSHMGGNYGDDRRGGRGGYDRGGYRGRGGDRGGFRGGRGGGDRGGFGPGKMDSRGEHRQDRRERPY"}, "source": "paper PMC8510580", "about": "“HspB8 prevents aberrant phase transitions of FUS by chaperoning its folded RNA-binding domain” (eLife, 2021)", "binders": {"B1": {"name": "HspB8-WT (natural protein, UniProt Q9UJY1 1-196, looked up)", "chain": "MADGQMPFSCHYPSRLRRDPFRDSPLSSRLLDDGFGMDPFPDDLTASWPDWALPRLSSAWPGTLRSGMVPRGPTATARFGVPAEGRTPPPFPGEPWKVCVNVHSFKPEELMVKTKDGYVEVSGKHEEKQQEGGIVSKNFTKKIQLPAEVDPVTVFASLSPEGLLIIEAPQVPPYSTFGESSFNNELPQDSQEVTCT", "notes": "small heat shock protein HspB8; IDR printed as AA1-71 and alpha-crystallin domain as AA72-196; The article's keywords name Human as organism; also called small heat shock protein HspB8; source: E. coli BL21 Codon RIL, purified (GST, PreScission cleavage, reverse GST, ResourceQ); not shown: GST, N-terminal, cleaved"}}, "biological_target": "FUS-G156E-K9-GFP (FUSm_K9) (human) (UniProt P35637)", "experiment": "cross-linking; XL-MS of FUSm (or FUSm_K9) mixed with the partner under condensate-inducing low salt (75 mM): low-salt mixture or dense phase separated by centrifugation; H12/D12 DSS, 30 min, 37°C; also 3 hr after formation and with an RNA oligonucleotide; both purified", "note": "Results are given in words; binding and its absence hold for the method and conditions named. A result given as binding can be weak or reduced; the word gives no strength.", "data": [{"binder": "B1", "values": [{"measurement": "binding", "result": "binds"}]}]}
